Values of other authors, collected in patent publication US7361685B2, “Compounds for use in the treatment of skin conditions” (Oregon Health & Science University, priority 2001, dated 2008).
For at least one compound, name, drawing or mass did not settle the structure.

System: melanocytes
Conditions: found in WO 001/02544; cited from earlier work

Compound: O=C(/C=C/C=C/c1ccc2c(c1)OCO2)N1CCCCC1 [Piperine, reference compound]
- Effect on replication of melanocytes: stimulates the replication of melanocytes
